The source of these data is doi:10.1101/256560.

The assay concerns the target T1, EzrA^Spn (S. pneumoniae) (UniProt Q8DQE5).
T1 sequence: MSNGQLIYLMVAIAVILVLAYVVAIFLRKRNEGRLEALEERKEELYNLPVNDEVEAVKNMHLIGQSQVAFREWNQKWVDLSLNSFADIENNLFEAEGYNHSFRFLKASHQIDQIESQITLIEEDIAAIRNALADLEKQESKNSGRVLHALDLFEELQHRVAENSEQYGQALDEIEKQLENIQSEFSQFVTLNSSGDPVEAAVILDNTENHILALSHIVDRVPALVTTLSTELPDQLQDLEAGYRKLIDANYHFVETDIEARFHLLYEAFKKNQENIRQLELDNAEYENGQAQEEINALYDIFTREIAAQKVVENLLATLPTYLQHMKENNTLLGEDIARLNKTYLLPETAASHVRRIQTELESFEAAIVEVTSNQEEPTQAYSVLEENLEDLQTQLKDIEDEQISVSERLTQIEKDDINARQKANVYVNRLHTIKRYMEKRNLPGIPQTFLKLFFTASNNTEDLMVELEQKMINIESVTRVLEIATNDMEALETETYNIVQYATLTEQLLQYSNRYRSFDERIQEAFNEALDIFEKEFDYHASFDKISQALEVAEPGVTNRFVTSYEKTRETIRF
In words: two-hybrid.

Results are given in words; binding and its absence hold for the method and conditions named. Some entries that bind do so weakly or less than the wild type.

Consider “CozE^Spn (from UniProt A0ACD7PR02 1-369)”, for which the binding entry was “binds”.
